{"source": "the supplement of paper PMC7125110", "parents": {"B1": {"name": "glmS ribozyme (parent)", "chain": "AUAAAAGCGCCAGAACUACAGAAAUGUAGUUGACGAGGAGGAGGUUUAUCGAAUUUUCGGCGGAUGCCUCCAAA"}}, "note": "± gives the standard error. Many entries were measured with a wide error.", "data": [{"variants_of": "B1", "experiment": "kcat; higher = faster cleavage; RNA array", "settings": "with glucosamine-6-phosphate", "in_short": "(§1)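 Glucosamine-6-phosphate in HEPES/KCl/Mg(OAc)2 buffer, at 40 μM to 10 mM, was flowed over barcoded ribozyme variants transcribed in situ by E. coli RNA polymerase on sequenced MiSeq chips. Tracking was through a hybridised Cy3 probe at 37 °C. kobs, kcat and KM came from exponential decay fits and weighted Michaelis–Menten fits of normalised per-tile medians.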", "units": {"kcat": "s⁻¹"}, "values": [{"variant": "A1C", "kcat": "0.0216 ± 0.011"}, {"variant": "A6C C50A U55G", "kcat": "< 1e-05"}, {"variant": "A6G A15U U56G U69G", "kcat": "0.000107 ± 6.6e-05"}, {"variant": "A6G A33U C58G C67U C71A", "kcat": "5.76e-05 ± 3.1e-05"}, {"variant": "A6U A15C A48U U69G", "kcat": "2.37e-05 ± 7.1e-06"}, {"variant": "A6U A53U", "kcat": "0.000209 ± 3.5e-05"}, {"variant": "A6U C16A", "kcat": "1.85e-05 ± 5.8e-06"}, {"variant": "A6U G51A", "kcat": "1.66e-05 ± 1.2e-05"}, {"variant": "A6U U45G", "kcat": "0.000193 ± 3.9e-05"}, {"variant": "G7U G38C", "kcat": "< 1e-05"}, {"variant": "G7U G60A", "kcat": "< 1e-05"}, {"variant": "G7U U55G", "kcat": "1.75e-05 ± 1.2e-05"}, {"variant": "G7U U69A", "kcat": "3.25e-05 ± 3.2e-05"}, {"variant": "C8U A36G C50A G51A C68U C70A", "kcat": "4.03e-05 ± 2e-05"}, {"variant": "G9U A14G", "kcat": "1.09e-05 ± 5.1e-06"}, {"variant": "G9U U45A", "kcat": "< 1e-05"}, {"variant": "C10U A36G", "kcat": "< 1e-05"}, {"variant": "C10U A53G C61A C67G", "kcat": "3.61e-05 ± 2.6e-05"}, {"variant": "C10U C67G C68U", "kcat": "3.94e-05 ± 2.9e-05"}, {"variant": "C11A A12U U45G U55A C70U", "kcat": "0.00104 ± 0.00013"}, {"variant": "C11A G62A", "kcat": "1.14e-05 ± 2e-06"}, {"variant": "C11G A33U", "kcat": "< 1e-05"}, {"variant": "C11U C61U", "kcat": "< 1e-05"}, {"variant": "C11U G29A", "kcat": "0.000628 ± 0.00013"}, {"variant": "C11U G29U G37C C70A", "kcat": "3.52e-05 ± 2.9e-05"}, {"variant": "C11U G32A", "kcat": "0.000453 ± 3.3e-05"}, {"variant": "C11U G37C", "kcat": "1.18e-05 ± 3.2e-06"}, {"variant": "C11U U56A", "kcat": "0.00124 ± 0.00023"}, {"variant": "C11U U57A", "kcat": "1.44e-05 ± 2.1e-06"}, {"variant": "A12C A15G", "kcat": "0.016 ± 0.0031"}, {"variant": "A12C C16U U57A", "kcat": "0.000707 ± 0.00036"}, {"variant": "A12C C50A", "kcat": "3.92e-05 ± 2.4e-05"}, {"variant": "A12C C70U", "kcat": "0.0168 ± 0.0085"}, {"variant": "A12C G13A", "kcat": "0.000473 ± 0.00016"}, {"variant": "A12C G29U", "kcat": "0.0106 ± 0.0057"}, {"variant": "A12C G59A", "kcat": "< 1e-05"}, {"variant": "A12C G62U C70G", "kcat": "2.02e-05 ± 4.5e-06"}, {"variant": "A12U A33U C67U", "kcat": "0.000242 ± 4.7e-05"}, {"variant": "A12U A36U", "kcat": "2.03e-05 ± 6.7e-07"}, {"variant": "A12U A48C", "kcat": "0.000932 ± 0.00088"}, {"variant": "A12U A64G", "kcat": "0.0329 ± 0.027"}, {"variant": "A12U C67A", "kcat": "0.00241 ± 0.0012"}, {"variant": "A12U C68U", "kcat": "0.00908 ± 0.005"}, {"variant": "A12U G29C", "kcat": "0.0301 ± 0.03"}, {"variant": "G13U G40A", "kcat": "9.73e-05 ± 5.4e-05"}, {"variant": "G13U G51A", "kcat": "< 1e-05"}, {"variant": "A14C C71U", "kcat": "0.0115 ± 0.0076"}, {"variant": "A14C G26A", "kcat": "0.00194 ± 0.00022"}, {"variant": "A14C U57A U69A", "kcat": "3.51e-05 ± 1.3e-05"}, {"variant": "A14G A42G", "kcat": "0.00853 ± 0.006"}, {"variant": "A14G C16G", "kcat": "0.0069 ± 0.0022"}, {"variant": "A14G C67A", "kcat": "0.00934 ± 0.007"}, {"variant": "A14G C70G", "kcat": "0.000878 ± 0.00049"}, {"variant": "A14G G32A G38U", "kcat": "< 1e-05"}, {"variant": "A14G U30A", "kcat": "0.0235 ± 0.016"}, {"variant": "A14G U31A", "kcat": "0.023 ± 0.021"}, {"variant": "A15C G66A", "kcat": "0.00737 ± 0.0042"}, {"variant": "A15C U30G", "kcat": "0.0526 ± 0.032"}]}, {"variants_of": "B1", "experiment": "KM; higher = weaker cofactor use; RNA array", "settings": "with glucosamine-6-phosphate", "in_short": "as §1", "units": {"KM": "µM"}, "values": [{"variant": "A1C", "KM": "708 ± 500"}, {"variant": "A6U A53U", "KM": "2570 ± 1100"}, {"variant": "A6U U45G", "KM": "33700 ± 8700"}, {"variant": "C10U A36G", "KM": "24.6 ± 15"}, {"variant": "C11A A12U U45G U55A C70U", "KM": "32400 ± 5100"}, {"variant": "C11A G62A", "KM": "130 ± 120"}, {"variant": "C11U C61U", "KM": "122 ± 8.2"}, {"variant": "C11U G29A", "KM": "4190 ± 1400"}, {"variant": "C11U G32A", "KM": "1520 ± 290"}, {"variant": "C11U U56A", "KM": "1910 ± 580"}, {"variant": "A12C A15G", "KM": "2400 ± 600"}, {"variant": "A12C C16U U57A", "KM": "35300 ± 21000"}, {"variant": "A12C C70U", "KM": "1900 ± 1200"}, {"variant": "A12C G13A", "KM": "3410 ± 1800"}, {"variant": "A12C G29U", "KM": "2270 ± 1400"}, {"variant": "A12U A33U C67U", "KM": "6520 ± 2600"}, {"variant": "A12U A36U", "KM": "2080 ± 230"}, {"variant": "A12U C67A", "KM": "97.1 ± 83"}, {"variant": "A12U C68U", "KM": "1540 ± 1100"}, {"variant": "A14C C71U", "KM": "5340 ± 4100"}, {"variant": "A14C G26A", "KM": "1030 ± 190"}, {"variant": "A14G C16G", "KM": "536 ± 270"}, {"variant": "A14G C67A", "KM": "805 ± 790"}, {"variant": "A14G C70G", "KM": "448 ± 340"}, {"variant": "A14G U30A", "KM": "2240 ± 1900"}, {"variant": "A15C G66A", "KM": "5060 ± 3700"}, {"variant": "A15C U30G", "KM": "1010 ± 800"}]}, {"variants_of": "B1", "experiment": "self-cleavage kobs at 2500 uM GlcN6P; higher = faster cleavage; RNA array", "settings": "with glucosamine-6-phosphate", "in_short": "as §1", "units": {"self-cleavage kobs at 2500 uM GlcN6P": "s⁻¹"}, "values": [{"variant": "A6G A15U U56G U69G", "self-cleavage kobs at 2500 uM GlcN6P": "6.68e-05 ± 4.5e-05"}, {"variant": "A6U A15C A48U U69G", "self-cleavage kobs at 2500 uM GlcN6P": "3.55e-05 ± 2.6e-05"}, {"variant": "A6U C16A", "self-cleavage kobs at 2500 uM GlcN6P": "2.09e-05 ± 1.9e-05"}, {"variant": "C11U U57A", "self-cleavage kobs at 2500 uM GlcN6P": "1.94e-05 ± 1.5e-05"}, {"variant": "A14C U57A U69A", "self-cleavage kobs at 2500 uM GlcN6P": "2.5e-05 ± 2.1e-05"}]}, {"variants_of": "B1", "experiment": "self-cleavage kobs at 10000 uM GlcN6P; higher = faster cleavage; RNA array", "settings": "with glucosamine-6-phosphate", "in_short": "as §1", "units": {"self-cleavage kobs at 10000 uM GlcN6P": "s⁻¹"}, "values": [{"variant": "A6G A33U C58G C67U C71A", "self-cleavage kobs at 10000 uM GlcN6P": "3.03e-05 ± 1.9e-05"}, {"variant": "G7U U69A", "self-cleavage kobs at 10000 uM GlcN6P": "0.000401 ± 0.00039"}, {"variant": "C11U U57A", "self-cleavage kobs at 10000 uM GlcN6P": "1.24e-05 ± 9.4e-06"}, {"variant": "A12C C50A", "self-cleavage kobs at 10000 uM GlcN6P": "1.78e-05 ± 1.2e-05"}, {"variant": "A12U A36U", "self-cleavage kobs at 10000 uM GlcN6P": "1.68e-05 ± 1.5e-05"}]}, {"variants_of": "B1", "experiment": "self-cleavage kobs at 160 uM GlcN6P; higher = faster cleavage; RNA array", "settings": "with glucosamine-6-phosphate", "in_short": "as §1", "units": {"self-cleavage kobs at 160 uM GlcN6P": "s⁻¹"}, "values": [{"variant": "A6U A15C A48U U69G", "self-cleavage kobs at 160 uM GlcN6P": "2.31e-05 ± 1.8e-05"}, {"variant": "C8U A36G C50A G51A C68U C70A", "self-cleavage kobs at 160 uM GlcN6P": "2.87e-05 ± 2.5e-05"}, {"variant": "C11U G29A", "self-cleavage kobs at 160 uM GlcN6P": "2.5e-05 ± 1.3e-05"}, {"variant": "A12C G13A", "self-cleavage kobs at 160 uM GlcN6P": "4.27e-05 ± 2.8e-05"}]}, {"variants_of": "B1", "experiment": "self-cleavage kobs at 640 uM GlcN6P; higher = faster cleavage; RNA array", "settings": "with glucosamine-6-phosphate", "in_short": "as §1", "units": {"self-cleavage kobs at 640 uM GlcN6P": "s⁻¹"}, "values": [{"variant": "A6U A53U", "self-cleavage kobs at 640 uM GlcN6P": "2.37e-05 ± 1.8e-05"}, {"variant": "C8U A36G C50A G51A C68U C70A", "self-cleavage kobs at 640 uM GlcN6P": "4.39e-05 ± 3.2e-05"}, {"variant": "C10U C67G C68U", "self-cleavage kobs at 640 uM GlcN6P": "3.39e-05 ± 2.7e-05"}, {"variant": "A12C G62U C70G", "self-cleavage kobs at 640 uM GlcN6P": "2.53e-05 ± 2.5e-05"}, {"variant": "A12U A33U C67U", "self-cleavage kobs at 640 uM GlcN6P": "2.15e-05 ± 1.2e-05"}]}, {"variants_of": "B1", "experiment": "self-cleavage kobs at 40 uM GlcN6P; higher = faster cleavage; RNA array", "settings": "with glucosamine-6-phosphate", "in_short": "as §1", "units": {"self-cleavage kobs at 40 uM GlcN6P": "s⁻¹"}, "values": [{"variant": "C8U A36G C50A G51A C68U C70A", "self-cleavage kobs at 40 uM GlcN6P": "3.6e-05 ± 2.3e-05"}, {"variant": "C10U A53G C61A C67G", "self-cleavage kobs at 40 uM GlcN6P": "3.99e-05 ± 3.2e-05"}, {"variant": "C10U C67G C68U", "self-cleavage kobs at 40 uM GlcN6P": "2.54e-05 ± 2e-05"}, {"variant": "A12U A48C", "self-cleavage kobs at 40 uM GlcN6P": "2.91e-05 ± 1.7e-05"}]}]}
